Results are given in words; binding and its absence hold for the method and conditions named. Binding seen in cells or lysates may run through a third protein. Some results given as binding are weak or reduced against the parent protein; the word gives no strength.
Assays:
TLR2-Flag [1] = biological target: TLR2-Flag (UniProt O60603); experiment: co-IP; 293T cells simultaneously transfected with TLR2-Flag, αv+β3-integrin, gH, gL (controls devoid of TLR2); TLR2-Flag immunoprecipitated with anti-Flag MAb; WB with PAb to gH/gL and PAb to β3-integrin
TLR2-Flag [2] = biological target: TLR2-Flag (UniProt O60603); experiment: co-IP; TLR2-Flag immunoprecipitated with anti-Flag M2 MAb, complexes harvested with Protein G-Sepharose, from lysates (PBS, 1% DOC, 1% Igepal) of transfected 293T or sh-β3 293T cells; WB with PAb 1932 to β3-integrin or PAb to gH/gL
[3] = biological target: strep-tagged αv-integrin with wt β3-integrin (αv_(strep)wt-β3-integrin) (UniProt P06756); experiment: pull-down; αvst harvested with Strep-Tactin Sepharose (the paper's 'IP: αvst') from sh-β3 293T cells transfected with αvst, β3wt or β3_(Y747-759F), MYD88-HA, plus or minus TLR2-Flag, exposed to R7910 for 10, 20, 30 min; lysis in EA1 buffer (50 mM HEPES, 250 mM NaCl, 0.5% Igepal, pH 8); WB with MAb to HA
[4] = biological target: strep-tagged αv-integrin with β3-integrin_(Y747-Y759) mutant (αv_(strep)β3-integrin_(Y747-Y759)) (UniProt P06756); experiment: as above

By UniProt entry, the sequences of proteins in these tests, tags left out. Where a name states a change or a piece, a line headed by the entry shows the natural chain unless it says otherwise. Residues count along the entry.
UniProt O60603: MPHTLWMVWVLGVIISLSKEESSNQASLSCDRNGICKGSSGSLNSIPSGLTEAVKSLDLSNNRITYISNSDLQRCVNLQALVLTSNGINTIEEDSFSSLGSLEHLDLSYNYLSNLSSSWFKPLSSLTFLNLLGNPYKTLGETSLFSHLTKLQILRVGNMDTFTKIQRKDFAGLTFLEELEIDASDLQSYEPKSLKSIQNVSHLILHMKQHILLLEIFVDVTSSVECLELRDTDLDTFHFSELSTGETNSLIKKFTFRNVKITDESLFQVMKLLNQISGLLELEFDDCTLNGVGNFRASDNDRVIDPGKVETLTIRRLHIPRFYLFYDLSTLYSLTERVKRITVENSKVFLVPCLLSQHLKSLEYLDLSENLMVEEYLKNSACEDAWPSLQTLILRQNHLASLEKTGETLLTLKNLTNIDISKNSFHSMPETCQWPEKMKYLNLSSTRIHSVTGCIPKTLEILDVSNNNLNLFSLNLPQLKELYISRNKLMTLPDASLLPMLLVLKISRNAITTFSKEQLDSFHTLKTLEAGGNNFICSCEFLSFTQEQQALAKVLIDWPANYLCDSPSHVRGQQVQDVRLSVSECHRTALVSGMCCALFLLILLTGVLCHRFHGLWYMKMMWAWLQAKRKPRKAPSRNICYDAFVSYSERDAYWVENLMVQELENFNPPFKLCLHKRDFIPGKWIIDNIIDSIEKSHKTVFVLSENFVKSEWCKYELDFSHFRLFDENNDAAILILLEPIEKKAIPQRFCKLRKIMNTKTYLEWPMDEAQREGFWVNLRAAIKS
UniProt P06756: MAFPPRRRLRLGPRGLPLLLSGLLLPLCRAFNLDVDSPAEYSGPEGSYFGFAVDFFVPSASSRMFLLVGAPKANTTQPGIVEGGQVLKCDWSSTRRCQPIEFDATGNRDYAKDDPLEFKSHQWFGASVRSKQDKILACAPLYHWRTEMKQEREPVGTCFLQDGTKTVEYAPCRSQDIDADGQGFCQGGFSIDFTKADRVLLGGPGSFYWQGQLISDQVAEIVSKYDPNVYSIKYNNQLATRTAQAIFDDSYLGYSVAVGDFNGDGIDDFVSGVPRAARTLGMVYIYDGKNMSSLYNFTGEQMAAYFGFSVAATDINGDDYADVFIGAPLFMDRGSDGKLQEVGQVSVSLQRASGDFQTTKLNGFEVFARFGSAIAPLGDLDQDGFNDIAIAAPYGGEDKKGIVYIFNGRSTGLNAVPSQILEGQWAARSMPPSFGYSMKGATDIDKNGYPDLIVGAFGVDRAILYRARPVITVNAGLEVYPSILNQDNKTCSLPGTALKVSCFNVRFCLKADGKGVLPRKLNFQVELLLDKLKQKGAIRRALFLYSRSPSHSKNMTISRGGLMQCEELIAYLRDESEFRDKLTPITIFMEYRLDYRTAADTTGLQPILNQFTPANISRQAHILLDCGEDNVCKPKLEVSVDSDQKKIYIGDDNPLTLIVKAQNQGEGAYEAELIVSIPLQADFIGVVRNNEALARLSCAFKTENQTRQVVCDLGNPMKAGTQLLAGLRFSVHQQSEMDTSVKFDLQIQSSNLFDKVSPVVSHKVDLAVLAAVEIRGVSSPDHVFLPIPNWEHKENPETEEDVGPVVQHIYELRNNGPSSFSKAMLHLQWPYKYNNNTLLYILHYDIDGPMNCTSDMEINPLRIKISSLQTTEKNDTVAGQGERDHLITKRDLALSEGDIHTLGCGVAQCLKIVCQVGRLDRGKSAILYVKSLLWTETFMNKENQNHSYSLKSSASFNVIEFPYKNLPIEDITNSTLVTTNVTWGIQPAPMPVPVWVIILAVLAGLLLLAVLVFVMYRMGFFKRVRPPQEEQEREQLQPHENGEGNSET
UniProt Q69091, residues 26-394: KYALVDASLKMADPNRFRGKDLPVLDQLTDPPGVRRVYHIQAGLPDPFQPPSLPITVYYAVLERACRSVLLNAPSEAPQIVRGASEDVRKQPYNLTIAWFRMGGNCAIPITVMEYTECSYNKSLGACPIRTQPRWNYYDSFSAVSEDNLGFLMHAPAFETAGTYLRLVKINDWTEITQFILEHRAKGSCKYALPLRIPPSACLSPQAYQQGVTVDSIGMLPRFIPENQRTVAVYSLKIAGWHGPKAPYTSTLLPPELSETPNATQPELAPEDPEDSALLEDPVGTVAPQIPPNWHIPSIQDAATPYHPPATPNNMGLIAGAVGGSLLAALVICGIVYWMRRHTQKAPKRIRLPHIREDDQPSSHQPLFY
UniProt Q99836: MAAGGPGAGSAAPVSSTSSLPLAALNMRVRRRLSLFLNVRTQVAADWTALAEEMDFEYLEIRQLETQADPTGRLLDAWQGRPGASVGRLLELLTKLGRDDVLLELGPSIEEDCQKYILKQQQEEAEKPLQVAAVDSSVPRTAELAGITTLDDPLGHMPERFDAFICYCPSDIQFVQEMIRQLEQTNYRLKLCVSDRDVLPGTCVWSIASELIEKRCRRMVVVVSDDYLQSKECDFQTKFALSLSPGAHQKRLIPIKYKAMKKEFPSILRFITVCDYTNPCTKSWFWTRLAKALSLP

| binding [3] | binding [4] | Substance | binding (TLR2-Flag [1]) | binding (TLR2-Flag [2]) |
| --- | --- | --- | --- | --- |
| – | – | HSV-1 glycoprotein gD (from UniProt Q69091 26-394) | no binding | – |
| – | – | HSV-1 glycoprotein gH/gL heterodimer (from UniProt P06477 19-838; P10185 20-224) (complex) | binds | binds |
| binds | no binding | hemagglutin (HA)-tagged MYD88 (MYD88-HA) (from UniProt Q99836 1-296) | – | – |
| – | – | αvβ3-integrin (αv + β3wt) (from UniProt P06756 31-1048; P05106 27-788) (complex) | binds | binds |
| – | – | αvβ3-integrin with β3_(Y747-759F) (αv + β3_(Y747-759F)) (from UniProt P06756 31-1048; P05106 27-788) (complex) | – | binds |

From paper PMC4223072
